Laboratory results taken from PubChem BioAssay AID493014 (National Center for Advancing Translational Sciences (NCATS), 2011).
The other results are listed elsewhere or left out. Further columns of the screen follow, without active or inactive calls. Most of these compounds were active or inconclusive in the main read-out, so they are no random draw. The note in brackets gives the kind of curve behind each potency; many fits are weak.

Assay: qHTS Assay to Find Inhibitors of Chronic Active B-Cell Receptor Signaling
Settings: ABC-DLBCL IkBa-CBG/CBR reporter, luminescence ratio (green luciferase fused to IkBa over red control in TMD8 lymphoma cells), 4 h
Procedure, shortened: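 TMD8 ABC-DLBCL cells carrying doxycycline-inducible green luciferase fused to IkappaBalpha plus unfused red luciferase were exposed to compounds (up to 46 uM) for 4 hrs at 37C. Activity came from the overlap-corrected green/red luminescence ratio.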

[1] = measured here: CBR red luminescence, cell number
[2] = measured here: IkBa-CBG green luminescence

Row | SMILES | AC50 [1] | AC50 [2]
1 | N#CCC(=O)N/N=C/c1cn(Cc2cccc3ccccc23)c2ccccc12 | 3.55 µM [falling, partial curve, poor fit] | 
2 | CCCOC(=O)Cn1c(=O)c2cc3c(=O)n(CC(=O)OCCC)c(=O)c3cc2c1=O | 13 µM [rising, partial curve] | 
3 | Cc1ccc2c(c1)cc(C)c1nnc(SCC(=O)NCc3ccco3)n12 | 2.82 µM [falling, full curve, poor fit] | 
4 | COc1ccccc1CNC(=O)COc1ccc(C)cc1 | 4.47 µM [rising, full curve] | 
5 | CCOC(=O)c1ccc(N2CN(CCc3ccccc3)CNC2=S)cc1 | 14.6 µM [falling, single point] | 
6 | NS(=O)(=O)c1cccnc1Nc1cccc(Cl)c1 | 18.4 µM [rising, partial curve] | 
7 | CC1=CCC(/C=N\Nc2nnc3c(n2)[nH]c2ccccc23)CC1 (stereo unspecified) | 14.6 µM [falling, single point] | 
8 | CCOc1ccc(-c2cc(N3C(=O)Nc4ccccc4N3O)n[nH]2)cc1 | 35.5 µM [rising, partial curve, poor fit] | 22.4 µM [falling, single point]
9 | COc1ccc(C(C)=O)c(Oc2ccc(S(=O)(=O)N3CCOCC3)cn2)c1 | 29.1 µM [rising, single point] | 
10 | Cc1cccc(NC(=O)CN2CCC(NC(=O)C3CCCCC3)CC2)c1C | 23.1 µM [falling, partial curve, poor fit] | 
11 | CCCCCCC(=O)N1CCC(c2nc3c(nnn3Cc3ccccc3Cl)c(=O)[nH]2)CC1 | 29.1 µM [falling, single point] | 
12 | CC[C@]12c3[nH]c4ccc(Cl)cc4c3CCN1C(=O)[C@@H](CC(=O)NCC13CC4CC(CC(C4)C1)C3)C[C@@H]2C(=O)N1CCN(C(=O)C2CC2)CC1 | 8.2 µM [falling, partial curve] | 
13 | COc1ccc(NC(=O)Cn2c(CCC(=O)O)ccc2-c2ccccc2)cc1 | 14.1 µM [rising, single point] | 
14 | O=C(NCCc1ccc(Cl)cc1Cl)c1cncc(Br)c1 | 35.5 µM [falling, single point] | 
15 | COc1cccc(NS(=O)(=O)c2ccc(Br)s2)c1 | 6.31 µM [falling, partial curve, poor fit] | 
16 | O=C(c1ccc(-n2c(SCc3cc(F)ccc3F)nc3ccccc3c2=O)cc1)N1CCOCC1 | 1.3 µM [rising, full curve, poor fit] | 
17 | CCOC(=O)CN1C(=N)N(c2nc(NC(C)C)nc(OC)n2)CC1=O | 7.94 µM [falling, partial curve, poor fit] | 
18 | Cc1ccc(/C(C#N)=C\c2ccc(N3CCOCC3)o2)cc1 | 18.4 µM [falling, partial curve, poor fit] | 6.51 µM [falling, partial curve, poor fit]
19 | C#CCOCCOCCOCCNc1nc(N2CCN(C(=O)CCCCCCCCCCNC(=O)Cn3cc(C[C@@H](C)O)nn3)CC2)nc(N2CCN(C(=O)CCCCCCCCCCNC(=O)[C@H](CCCN=C(N)N)n3cc(C[C@@H](C)CC)nn3)CC2)n1 | 3.66 µM [rising, partial curve, poor fit] | 

Row | SMILES | AC50 [1] | AC50 [2]
20 | COc1ccc(CCNC(=O)C(=O)c2c(C)n(C)c3ccccc23)cc1OC | 20 µM [rising, partial curve, poor fit] | 14.1 µM [falling, partial curve]
21 | Cc1ccccc1NC(=O)COc1ccc2oc(=O)cc(C)c2c1 | 15.8 µM [falling, partial curve] | 
22 | COc1ccc(C(=O)/C=C/c2cc(OC)c(O)c(OC)c2)c(F)c1 | 14.6 µM [falling, single point] | 
23 | CCn1nc(C)c(/C=N\NC(=O)c2cccc(OC)c2)c1C | 8.2 µM [falling, partial curve] | 
24 | CC(=O)Nc1ccc2c(CSc3nnc(N)s3)cc(=O)oc2c1 | 35.5 µM [falling, single point] | 
25 | O=C(N/N=C/c1cccc2ccccc12)c1cccs1 | 35.5 µM [falling, single point] | 
26 | Cc1ccccc1C(=O)c1cccn1CC(=O)NCCN1CCN(c2cccc(C)c2C)CC1 | 0.058 µM [rising, full curve, poor fit] | 
27 | N#Cc1ccc(OCc2nnc(-c3ccc([N+](=O)[O-])cc3)o2)cc1 | 0.794 µM [rising, full curve, poor fit] | 
28 | CCCCSc1nnc(-c2ccc(C)cc2)o1 | 0.116 µM [rising, full curve, poor fit] | 
29 | COC(=O)C1CCN(C(=O)/C=C/c2ccccc2)CC1 | 3.66 µM [falling, partial curve] | 
30 | CCN(Cc1ccncc1)C(=O)c1ccc(C)o1 | 3.16 µM [rising, full curve, poor fit] | 
31 | CN(C)C(=O)CSc1ncccc1-c1nc2ccccc2[nH]1 | 4.47 µM [falling, partial curve] | 
32 | COc1ccc(CCNC(=O)CCc2ccc(S(=O)(=O)NC(C)C)cc2)cc1OC | 29.1 µM [rising, single point] | 
33 | CC(C)CC(NC(=O)CCl)c1ccccc1 (stereo unspecified) | 18.4 µM [falling, single point] | 
34 | O=C(NCC1CCCO1)c1cc2c([nH]c3ccccc32)c(-c2ccc(F)cc2)n1 (stereo unspecified) | 7.08 µM [falling, partial curve, poor fit] | 
35 | CC(=O)Nc1ccc(S(=O)(=O)N2CCN(Cc3cccnc3)CC2)cc1 | 7.31 µM [falling, single point] | 
36 | CCS(=O)(=O)c1ccc2oc(SCC(=O)NC34CC5CC(CC(C5)C3)C4)nc2c1 | 0.0731 µM [falling, full curve, poor fit] | 
37 | O=C(COC(=O)c1ccc(O)cc1)c1ccc2c(c1)OCCO2 | 13 µM [falling, partial curve] | 
38 | Cc1cccc(CN(CC(=O)N/N=C/c2cccs2)S(=O)(=O)c2ccc(Cl)cc2)c1 | 3.55 µM [falling, partial curve, poor fit] | 

Arranged by SMILES length (falling): part of the list above.
Row | SMILES | AC50 [1] | AC50 [2]
35 | CC(=O)Nc1ccc(S(=O)(=O)N2CCN(Cc3cccnc3)CC2)cc1 | 7.31 µM [falling, single point] | 
24 | CC(=O)Nc1ccc2c(CSc3nnc(N)s3)cc(=O)oc2c1 | 35.5 µM [falling, single point] | 
28 | CCCCSc1nnc(-c2ccc(C)cc2)o1 | 0.116 µM [rising, full curve, poor fit] | 
